# Percent effect of library compounds

Amino acid sequences for entries named in this document (tags omitted). Residues count along the entry.
UniProt Q4DA54, 1-478: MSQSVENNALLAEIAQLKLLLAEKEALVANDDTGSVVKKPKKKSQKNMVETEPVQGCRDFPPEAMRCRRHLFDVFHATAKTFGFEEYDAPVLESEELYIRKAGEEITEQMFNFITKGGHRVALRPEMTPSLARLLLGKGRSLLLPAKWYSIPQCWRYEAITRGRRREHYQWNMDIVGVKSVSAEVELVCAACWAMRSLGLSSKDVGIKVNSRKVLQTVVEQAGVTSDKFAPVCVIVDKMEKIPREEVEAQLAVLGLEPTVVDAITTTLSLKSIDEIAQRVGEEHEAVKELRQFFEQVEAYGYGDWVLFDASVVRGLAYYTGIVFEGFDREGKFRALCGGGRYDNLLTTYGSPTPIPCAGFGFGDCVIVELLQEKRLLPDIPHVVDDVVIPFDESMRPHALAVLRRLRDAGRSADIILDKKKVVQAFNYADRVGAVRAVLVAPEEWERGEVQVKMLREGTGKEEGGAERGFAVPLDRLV
UniProt P9WNZ1, whole entry: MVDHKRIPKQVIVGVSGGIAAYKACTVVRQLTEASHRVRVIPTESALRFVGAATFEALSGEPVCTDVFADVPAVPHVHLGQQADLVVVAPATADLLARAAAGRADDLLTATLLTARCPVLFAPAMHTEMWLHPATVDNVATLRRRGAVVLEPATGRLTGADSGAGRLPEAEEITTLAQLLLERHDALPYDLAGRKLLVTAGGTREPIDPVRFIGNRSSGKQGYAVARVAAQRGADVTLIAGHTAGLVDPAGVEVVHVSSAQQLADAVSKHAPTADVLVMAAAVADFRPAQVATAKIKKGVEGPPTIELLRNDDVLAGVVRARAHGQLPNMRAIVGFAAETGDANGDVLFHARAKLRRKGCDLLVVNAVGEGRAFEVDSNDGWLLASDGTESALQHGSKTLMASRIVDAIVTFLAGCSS
UniProt A4I591, 1-473: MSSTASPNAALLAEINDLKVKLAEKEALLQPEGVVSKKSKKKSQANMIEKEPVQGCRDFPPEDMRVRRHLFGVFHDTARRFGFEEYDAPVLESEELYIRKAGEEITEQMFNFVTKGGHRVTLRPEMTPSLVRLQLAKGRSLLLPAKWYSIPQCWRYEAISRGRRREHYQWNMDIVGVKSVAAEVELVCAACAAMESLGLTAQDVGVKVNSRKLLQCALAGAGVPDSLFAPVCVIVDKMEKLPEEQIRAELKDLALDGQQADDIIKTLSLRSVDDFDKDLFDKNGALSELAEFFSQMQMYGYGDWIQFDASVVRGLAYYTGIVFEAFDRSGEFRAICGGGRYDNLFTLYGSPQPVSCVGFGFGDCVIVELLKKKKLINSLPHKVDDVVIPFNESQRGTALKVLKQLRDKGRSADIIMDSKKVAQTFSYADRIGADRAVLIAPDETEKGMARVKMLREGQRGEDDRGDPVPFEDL

Values are the deposited “Percent Effect”, in %. The controls that fix the scale are not given in the record; negative values are as filed. Compounds were drawn at random from those tested, without regard to their results. A dash means the value is not listed here; it may have been measured.

TcHisRS: 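Histidine-tRNA ligase, Trypanosoma cruzi CL Brener (UniProt Q4DA54). Enzyme assay of histidyl-tRNA synthetase; the read-out is not stated. Tested at 30 µM. Higher reads as stronger inhibition (inferred: compounds with an IC50 in retests scored well above the rest). Of about 69,000 compounds tested this way, about 31 (0.045%) reached 50% or more in at least one test.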
CoaBC: 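Enzyme assay of CoaBC with a phosphate dye (Biomol Green) read at 650 nm. Target: Coenzyme A biosynthesis protein CoaBC, Mycobacterium tuberculosis (UniProt P9WNZ1). Concentration: 30 µM. Direction is inferred from only a few compounds that gave an IC50; most scored high, so higher reads as stronger inhibition. Most strong results did not repeat in a second test. About 67,000 compounds were tested under these conditions; 0.06% (about 40) showed 50% or more at least once.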
LiHisRS: 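Enzyme assay of histidyl-tRNA synthetase; the read-out is not stated. Target: Histidine-tRNA ligase, Leishmania infantum (UniProt A4I591). Concentration: 30 µM. Higher reads as stronger inhibition (inferred: compounds with an IC50 in retests scored well above the rest). The assay is labelled LdHisRS but filed under L. infantum. Of about 69,000 compounds tested this way, about 410 (0.6%) reached 50% or more in at least one test.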

structure,TcHisRS,CoaBC,LiHisRS
CC(=O)N1CCC2(CCN(C(=O)c3ccc(F)c(C(F)(F)F)c3)C2)C1 (centres unmarked),4.132,11.34,9.091
Cc1ccc(CNc2cc(N3CCCC3CO)ncn2)s1 (centres unmarked),5.983,-5.094,-17.09
CCOCc1ncn2c1CN(C(=O)Nc1cccc(C)c1)CC2,8.021,-23.4,19.23
CC[C@@]1(O)CCN(C(=O)c2ccc(CN3CCCCCC3)cc2)C[C@H]1O,5.102,3.03,14.52
COCCN1C(=O)[C@H]2CC[C@@H]1CN(C(=O)COc1ccc(F)c(Cl)c1)C2,2.597,-3.415,-13.33
Cc1cc(C)n(NC(=O)c2cccc3c2OCC3)c(=O)c1,4.469,0.7712,4.167
COCC(C)N(C)C(=O)NC1CCN(S(C)(=O)=O)CC1 (centres unmarked),5.202,-12.4,6.667
Cc1cnn(CCNCc2nccn2Cc2ccccc2)c1,7.937,-16.74,8.219
Cc1cc(C(=O)N2CCCCC2C)ccc1NC(=O)N1CCOCC1 (centres unmarked),2.857,0.7168,5.769
CC(O)C1CCN(Cc2cnc3c(-c4ccccc4)cnn3c2)CC1 (centres unmarked),1.093,10.24,12.28
c1cc(CCN2CCCC2CN2CCCCC2)ccn1 (centres unmarked),7.216,4.645,6.452
CNC(=O)C1Cn2ccnc2C2(CCN(C(=O)CC3CCCC3)CC2)O1 (centres unmarked),5.464,-1.525,12.28
O=C1CC2(CCN(C(=O)c3ccccn3)CC2)Oc2c(Cl)cc(Cl)cc21,-5.682,3.398,13.86
CCN(CC)C(=O)C1CCCN(CC(=O)Nc2c(C)nn(CC)c2C)C1 (centres unmarked),3.004,-8.493,1.639
O=C1[C@@H]2CCN(Cc3ccncc3)C[C@@H]2OCCN1c1ccccc1,1.639,5.699,13.87
CN(C)c1nc2c(c(N3CCc4c(c(CO)nn4C)C3)n1)CCNC2,-6.466,4.183,11.39
Cc1c[nH]c(CN(C)C(=O)C(C)(C)NC(=O)c2cccs2)n1,1.205,2.036,15.38
FC(F)(F)c1cccc(CN2CCOC[C@H](Oc3cccnc3)C2)c1,6.522,6.402,22.97
Cc1noc([C@@H]2CCO[C@@H]3CCN(Cc4nccs4)C[C@@H]32)n1,5.882,-9.939,-4.587
O=S(=O)(c1cc2ccccc2o1)N1CCCC1,2.463,-14.87,16.88
Cc1nn(C)c(C)c1-c1c(-c2ccccc2)ncn1[C@H](CO)C(=O)O,3.743,0.8696,1.571
Cn1cccc1C(=O)N1CCCCC1c1[nH]ncc1S(C)(=O)=O (centres unmarked),6.593,2.67,4.348
N#CC1(C(=O)N2C[C@H](Nc3ccnc(N)n3)[C@@H](C3CC3)C2)CCOCC1,2.062,15.21,10.34
CN(C)CCOc1ccc(CNC(=O)c2cccc(Cl)c2Cl)cc1,-2.041,-15.48,30.56
COc1ccc(F)c(NCc2cnn(C3CCS(=O)(=O)C3)c2)c1 (centres unmarked),2.597,-,28.57
COc1ccc(N(C(=O)c2cnc(C)cn2)C(C)C)cc1F,4.972,7.323,4.225
Cc1nc(CN2C(=O)CC[C@@H]3[C@H]2CCN3C2CCOC2)cs1 (some centres unmarked),15.08,6.947,24.47
Cc1nn(C)c2ncnc(NCc3nncn3C3CCCCC3)c12,4.464,5.157,23.01
N#Cc1cccc(C(=O)N2CCCC(C(=O)CCc3ccccc3)C2)c1 (centres unmarked),2.439,0.8861,15.66
CC(NCC1CCN(CCO)CC1)c1cccnc1 (centres unmarked),2.186,-10.02,8.219
O=C(c1ccsc1)N1CCC2(CCN2Cc2ccc(F)cc2)C1 (centres unmarked),4.908,-,11.97
O=C1OCCN1C1CCN(Cc2cc3n(n2)CCCNC3)CC1,1.064,10.45,24.29
COCC1c2nnn(CC3CC3)c2CCN1C(=O)c1cc(C)[nH]c1C (centres unmarked),13.04,13.08,19.74
Cc1c(-c2cc(C(F)(F)F)nc(N3CCC(N)CC3)n2)cnn1C,1.554,10.21,19.35
Cc1c(C(=O)NC(CN2CCCC2=O)c2ccccc2)cnn1C (centres unmarked),2.662,0.266,15.2
Cc1cc(C)c(C(=O)N2CCCC(C(=O)CCc3ccccc3)C2)cn1 (centres unmarked),-1.22,5.949,18.07
CCN(CC)CCNC(=O)c1cnc(C(C)(C)C)s1,3.788,2.838,4.545
CC(=O)N(C)Cc1cccc(NC(=O)N(C)CCc2cccs2)c1,-1.657,19.9,4.819
Cc1nc(CN2C(=O)CC[C@@H]3[C@H]2CCN3C(=O)C2CCCO2)cs1 (some centres unmarked),3.659,0.5013,15.38
CCCn1ccnc1-c1cccc(NC(=O)[C@H]2CCC(=O)N2)c1,-0.8929,-0.6289,19.47
Cc1cccc(N2CCN(CCC(=O)NCc3cnc(C)cn3)CC2)c1,2.513,-2.292,0.8
COCCCn1c(CN2CCCCO2)cnc1S(=O)(=O)C1CCCC1,7.623,2.538,15.29
Cc1nc(C)c(C(=O)N2CCCC(c3cnccn3)C2)s1 (centres unmarked),6.716,-3.406,28.42
CNC(=O)CCN(C)c1nc(-c2ccncc2)nc2c1CCNC2,9.453,10.62,13.99
Cc1csc(N2CCN(Cc3ccn(C)c(=O)c3)CC2)n1,11.23,6.087,7.853
CCc1csc(C2CCCN(C(=O)C3=NN(CC)C(=O)CC3)C2)n1 (centres unmarked),-0.7634,2.169,21.92
COc1coc(CN2CCCC(CCc3c(F)cccc3F)C2)cc1=O (centres unmarked),6.404,2.581,22.37
O=C(c1coc2ccccc12)N1CCCC1,5.263,-,14.17
N#Cc1ccc(S(=O)(=O)NC(=O)C2CC(c3ccccc3)=NO2)cc1 (centres unmarked),7.772,-55.21,16.85
COC(=O)CN(Cc1ccccc1C)C(=O)CCNC(=O)C(C)(C)C,-0.8403,2.016,19.3
Cc1ccc(C(=O)N2CCc3nc4c(C)csc4c(=O)n3CC2)cn1,13.19,2.184,10.14
COc1cccnc1NC(=O)COC1CCCC1,3.03,-4.866,-13.33
Cn1nccc1-c1nc2c(cc1C(=O)O)CCN(CC1CC1)CC2,-4.372,15.9,12.28
CN(Cc1nnc(C2CC2)n1C)S(=O)(=O)c1ccccc1C#N,0,-0.2532,7.895
COCC1c2nnn(CC3CC3)c2CCN1C(=O)C1CCOCC1 (centres unmarked),3.261,8.879,22.37
Cc1ccnc(N2CCC(OCCN3CCCCC3)C2)n1 (centres unmarked),-1.149,-5.2,7.692

Some entries from above, unchanged:

Result for Cc1cc(C(=O)N2CCCCC2C)ccc1NC(=O)N1CCOCC1 (centres unmarked) was TcHisRS: 2.857%; CoaBC: 0.7168%; LiHisRS: 5.769%.
Result for Cc1noc([C@@H]2CCO[C@@H]3CCN(Cc4nccs4)C[C@@H]32)n1 was TcHisRS: 5.882%; CoaBC: -9.939%; LiHisRS: -4.587%.
Result for Cc1c[nH]c(CN(C)C(=O)C(C)(C)NC(=O)c2cccs2)n1 was TcHisRS: 1.205%; CoaBC: 2.036%; LiHisRS: 15.38%.
Result for COC(=O)CN(Cc1ccccc1C)C(=O)CCNC(=O)C(C)(C)C was TcHisRS: -0.8403%; CoaBC: 2.016%; LiHisRS: 19.3%.
Result for Cc1nc(CN2C(=O)CC[C@@H]3[C@H]2CCN3C2CCOC2)cs1 (some centres unmarked) was TcHisRS: 15.08%; CoaBC: 6.947%; LiHisRS: 24.47%.
Result for Cc1ccc(CNc2cc(N3CCCC3CO)ncn2)s1 (centres unmarked) was TcHisRS: 5.983%; CoaBC: -5.094%; LiHisRS: -17.09%.

Data taken from ChEMBL document CHEMBL3988442, “University of Dundee, Small-Polar-MMV Screening Library” (2021).